# Assay results published in the supplement of paper PMC4635364.
# Where a name gives a salt, the structure may show the parent alone. The list shows a part of the results. Single values are uncertain here, since repeats match poorly.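 Cells: ReNCell VM human fetal ventral-midbrain neural progenitors, differentiated mitogen-free. Blinded raters compared doublecortin-stained (early neurons) or tyrosine hydroxylase-stained (dopaminergic neurons) images with untreated wells, where 0 means no change. After repeats and both raters were averaged, compounds scoring 2 or above became hits for retesting.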
# Key:
# ReNCell VM [1] = assay: neuronal differentiation score (DCX+ cell fraction vs untreated, manual image score) (score (-3 to 3)); higher = more neuronal differentiation; conditions: 2 uM, 2 weeks
# ReNCell VM [2] = assay: dopaminergic neuron differentiation score (TH+ cell fraction vs untreated, manual image score) (score (0 to 3)); higher = more TH+ dopaminergic neuron differentiation; conditions: 2 uM, 4 weeks, BDNF 10 ng/ml + GDNF 10 ng/ml
compound,measurement,setting,value
COc1ccc2c(c1)c(CC(=O)N1CCOCC1)c(C)n2C(=O)c1ccc(Cl)cc1,neuronal differentiation score,ReNCell VM [1]; library: Tocriscreen,inactive: 0
same,dopaminergic neuron differentiation score,ReNCell VM [2]; library: Tocriscreen,inactive: 0
O=c1ccn([C@@H]2O[C@H](COP(=O)(O)OP(=O)(O)O)[C@@H](O)[C@H]2O)c(=O)[nH]1 [Uridine 5'-diphosphate sodium],neuronal differentiation score,ReNCell VM [1]; library: LOPAC,inactive: 0
same,dopaminergic neuron differentiation score,ReNCell VM [2]; library: LOPAC,inactive: 0
CCC1NC(=O)c2cc(S(N)(=O)=O)c(Cl)cc2N1 (stereo not drawn),neuronal differentiation score,ReNCell VM [1]; library: Spectrum,inactive: 0
same,dopaminergic neuron differentiation score,ReNCell VM [2]; library: Spectrum,inactive: 0
CCCCC(=O)O[C@]1(C(=O)CO)[C@@H](C)C[C@H]2[C@@H]3CCC4=CC(=O)C=C[C@]4(C)[C@@]3(F)[C@@H](O)C[C@@]21C,neuronal differentiation score,ReNCell VM [1]; library: Spectrum,inactive: 0
same,dopaminergic neuron differentiation score,ReNCell VM [2]; library: Spectrum,inactive: 0
COc1cc2ccc(=O)oc2cc1O,neuronal differentiation score,ReNCell VM [1]; library: Spectrum,inactive: 0
same,dopaminergic neuron differentiation score,ReNCell VM [2]; library: Spectrum,inactive: 0
CCCNC(C)C(=O)Nc1ccccc1C (stereo not drawn),neuronal differentiation score,ReNCell VM [1]; library: Spectrum,inactive: 0
same,dopaminergic neuron differentiation score,ReNCell VM [2]; library: Spectrum,inactive: 0
C=C(C)[C@@H]1CC[C@]2(CO)CC[C@]3(C)[C@H](CC[C@@H]4[C@@]5(C)CC[C@H](O)C(C)(C)[C@@H]5CC[C@]43C)[C@@H]12 [Betulin],neuronal differentiation score,ReNCell VM [1]; library: Phytochemical,inactive: 0
same,dopaminergic neuron differentiation score,ReNCell VM [2]; library: Phytochemical,inactive: 0
Cc1ccc(NC2=CC(=O)c3sc(C)nc3C2=O)cc1 [Ryuvidine],neuronal differentiation score,ReNCell VM [1]; library: Tocriscreen,inactive: 0
same,dopaminergic neuron differentiation score,ReNCell VM [2]; library: Tocriscreen,inactive: 0
C=CCNC(N)=S,neuronal differentiation score,ReNCell VM [1]; library: Spectrum,inactive: 0
same,dopaminergic neuron differentiation score,ReNCell VM [2]; library: Spectrum,inactive: 0
Cc1onc(-c2ccccc2)c1C(=O)N[C@@H]1C(=O)N2[C@@H]1SC(C)(C)[C@@H]2C(=O)O [Oxacillin sodium],neuronal differentiation score,ReNCell VM [1]; library: Prestwick,inactive: 0
same,dopaminergic neuron differentiation score,ReNCell VM [2]; library: Prestwick,inactive: 0
"CCCc1c(-c2ccc(O)cc2)nn(-c2ccc(O)cc2)c1-c1ccc(O)cc1 [1,3,5-tris(4-hydroxyphenyl)-4-propyl-1H-pyrazole]",neuronal differentiation score,ReNCell VM [1]; library: LOPAC,inactive: 0
same,dopaminergic neuron differentiation score,ReNCell VM [2]; library: LOPAC,inactive: 0
O=C1NCCN1CCN1CCC(c2cn(-c3ccc(F)cc3)c3ccc(Cl)cc23)CC1 [Sertindole],neuronal differentiation score,ReNCell VM [1]; library: Prestwick,inactive: 0
same,dopaminergic neuron differentiation score,ReNCell VM [2]; library: Prestwick,inactive: 0
CNCC[C@@H](Oc1ccccc1C)c1ccccc1 [Tomoxetine],neuronal differentiation score,ReNCell VM [1]; library: LOPAC,inactive: 0
same,dopaminergic neuron differentiation score,ReNCell VM [2]; library: LOPAC,inactive: 0
Cc1c(NC(C)C)c(=O)n(-c2ccccc2)n1C [Isopyrin hydrochloride],neuronal differentiation score,ReNCell VM [1]; library: Prestwick,inactive: 0
same,dopaminergic neuron differentiation score,ReNCell VM [2]; library: Prestwick,inactive: 0
CC[N+](CC)(CC(=O)Nc1c(C)cccc1C)Cc1ccccc1,neuronal differentiation score,ReNCell VM [1]; library: Spectrum,inactive: 0
same,dopaminergic neuron differentiation score,ReNCell VM [2]; library: Spectrum,inactive: 0
C#C[C@]1(O)CC[C@H]2[C@@H]3[C@H](C)CC4=C(CCC(=O)C4)[C@H]3CC[C@@]21C [Tibolone],neuronal differentiation score,ReNCell VM [1]; library: Prestwick,inactive: 0
same,dopaminergic neuron differentiation score,ReNCell VM [2]; library: Prestwick,inactive: 0
CO[C@@]12[C@H](COC(N)=O)C3=C(C(=O)C(C)=C(N)C3=O)N1C[C@@H]1N[C@@H]12,neuronal differentiation score,ReNCell VM [1]; library: Spectrum,inactive: 0
same,dopaminergic neuron differentiation score,ReNCell VM [2]; library: Spectrum,inactive: 0
CN(C)c1ccc(C(=C2C=CC(=[N+](C)C)C=C2)c2ccc(N(C)C)cc2)cc1,neuronal differentiation score,ReNCell VM [1]; library: Spectrum,inactive: 0
same,dopaminergic neuron differentiation score,ReNCell VM [2]; library: Spectrum,inactive: 0
"N=C(N)SCCc1cccc(CCSC(=N)N)c1 [1,3-PBIT dihydrobromide]",neuronal differentiation score,ReNCell VM [1]; library: LOPAC,inactive: -1
same,dopaminergic neuron differentiation score,ReNCell VM [2]; library: LOPAC,inactive: 0
COc1c2c(cc3oc(CO)cc(=O)c13)O[C@H](C(C)(C)O)C2 [Cimifugin],neuronal differentiation score,ReNCell VM [1]; library: Phytochemical,inactive: 0
same,dopaminergic neuron differentiation score,ReNCell VM [2]; library: Phytochemical,inactive: 0
COc1cc2ncnc(Nc3ccc(Oc4ccccc4)cc3)c2cc1OC,neuronal differentiation score,ReNCell VM [1]; library: Tocriscreen,inactive: 0
same,dopaminergic neuron differentiation score,ReNCell VM [2]; library: Tocriscreen,inactive: 0
CCn1cc(C(=O)O)c(=O)c2cc(F)c(N3CCN(C)CC3)cc21,neuronal differentiation score,ReNCell VM [1]; library: Spectrum,inactive: 0
same,dopaminergic neuron differentiation score,ReNCell VM [2]; library: Spectrum,inactive: 0
C/C=C1\[C@H]2C=C(C)C[C@]1(N)c1ccc(=O)[nH]c1C2 [Huperzine A],neuronal differentiation score,ReNCell VM [1]; library: Phytochemical,inactive: 0
same,dopaminergic neuron differentiation score,ReNCell VM [2]; library: Phytochemical,inactive: 0
"COc1cc2[nH]c(=O)[nH]c(=O)c2cc1OC [6,7-dimethoxy-quinazoline-2,4-diol]",neuronal differentiation score,ReNCell VM [1]; library: Natural,inactive: 0
same,dopaminergic neuron differentiation score,ReNCell VM [2]; library: Natural,inactive: 0
Cc1onc(-c2c(Cl)cccc2Cl)c1C(=O)N[C@@H]1C(=O)N2[C@@H]1SC(C)(C)[C@@H]2C(=O)O,neuronal differentiation score,ReNCell VM [1]; library: Spectrum,inactive: 0
same,dopaminergic neuron differentiation score,ReNCell VM [2]; library: Spectrum,inactive: 0
C[C@H]1O[C@@H](O[C@H]2[C@@H](O)C[C@H](O[C@H]3[C@@H](O)C[C@H](O[C@H]4CC[C@@]5(C)[C@H](CC[C@@H]6[C@@H]5C[C@@H](O)[C@]5(C)[C@@H](C7=CC(=O)OC7)CC[C@]65O)C4)O[C@@H]3C)O[C@@H]2C)C[C@H](O)[C@@H]1O,neuronal differentiation score,ReNCell VM [1]; library: Spectrum,inactive: 0
same,dopaminergic neuron differentiation score,ReNCell VM [2]; library: Spectrum,inactive: 0
NC(=O)N1C(=O)/C(=C(\O)c2cccs2)c2cc(Cl)ccc21 [Tenidap],neuronal differentiation score,ReNCell VM [1]; library: Tocriscreen,inactive: 0
same,dopaminergic neuron differentiation score,ReNCell VM [2]; library: Tocriscreen,inactive: 1
c1cnc(N2CCN(Cc3ccc4c(c3)OCO4)CC2)nc1 [Piribedil maleate],neuronal differentiation score,ReNCell VM [1]; library: LOPAC,inactive: 1
same,dopaminergic neuron differentiation score,ReNCell VM [2]; library: LOPAC,inactive: 0
Cc1ccc(/C(=C\CN2CCCC2)c2ccccn2)cc1 [trans-Triprolidine hydrochloride],neuronal differentiation score,ReNCell VM [1]; library: Tocriscreen,inactive: 0
same,dopaminergic neuron differentiation score,ReNCell VM [2]; library: Tocriscreen,inactive: 0
CC(C)=CCC/C(C)=C/CC/C(C)=C/CC/C(C)=C/CC1=C(C)C(=O)c2ccccc2C1=O,neuronal differentiation score,ReNCell VM [1]; library: Spectrum,inactive: 0
same,dopaminergic neuron differentiation score,ReNCell VM [2]; library: Spectrum,inactive: 0
Oc1c(I)cc(I)c2cccnc12,neuronal differentiation score,ReNCell VM [1]; library: Spectrum,inactive: 0
same,dopaminergic neuron differentiation score,ReNCell VM [2]; library: Spectrum,inactive: 0
COc1cc(O)c(C(=O)/C=C/c2ccc(OC)c(O)c2)c(OC)c1,neuronal differentiation score,ReNCell VM [1]; library: Spectrum,inactive: 0
same,dopaminergic neuron differentiation score,ReNCell VM [2]; library: Spectrum,inactive: 0
C[C@H](CCC(=O)O)[C@H]1CC[C@H]2[C@@H]3[C@H](O)C[C@@H]4C[C@H](O)CC[C@]4(C)[C@H]3CC[C@]12C,neuronal differentiation score,ReNCell VM [1]; library: Spectrum,inactive: 1
same,dopaminergic neuron differentiation score,ReNCell VM [2]; library: Spectrum,inactive: 0
CCN(c1nc(N)c(C(=O)NC(=N)N)nc1Cl)C(C)C [5-(N-Ethyl-N-isopropyl)amiloride],neuronal differentiation score,ReNCell VM [1]; library: LOPAC,active: 2
same,dopaminergic neuron differentiation score,ReNCell VM [2]; library: LOPAC,inactive: 0

# A section of the results above, for reference:
compound,measurement,setting,value
C/C=C1\[C@H]2C=C(C)C[C@]1(N)c1ccc(=O)[nH]c1C2 [Huperzine A],neuronal differentiation score,ReNCell VM [1]; library: Phytochemical,inactive: 0
same,dopaminergic neuron differentiation score,ReNCell VM [2]; library: Phytochemical,inactive: 0
"COc1cc2[nH]c(=O)[nH]c(=O)c2cc1OC [6,7-dimethoxy-quinazoline-2,4-diol]",neuronal differentiation score,ReNCell VM [1]; library: Natural,inactive: 0
